The assay relates to P388 leukemia ip, CD2F1 mice, survival T/C. As to the kind of experiment: NCI In Vivo Anticancer Drug Screen. Data for tumor model P388 Leukemia (intraperitoneal) in CD2F1 (CDF1) mice. To be noted: T/C endpoint: median survival time, higher T/C = longer survival.
[1] abbreviates: dose: 200.0 mg/kg/injection, schedule: Q01DX009 (ip), vehicle: water.
[2] abbreviates: dose: 200.0 mg/kg/injection, schedule: Q01DX005 (ip), vehicle: saline.
Where [3] appears, read: dose: 12.5 mg/kg/injection, schedule: Q01DX009 (ip), vehicle: saline.
Setting [4] is: dose: 100.0 mg/kg/injection, schedule: Q01DX009 (ip), vehicle: saline.
Setting [5] is: dose: 200.0 mg/kg/injection, schedule: Q01DX009 (ip), vehicle: saline.
Setting [6] is: dose: 240.0 mg/kg/injection, schedule: Q01DX005 (ip), vehicle: saline with Tween-80.

The list shows only some results of the screen, not a fair sample: it is rich in T/C values a quarter to a half above the control, in often repeated tests (any T/C) and in doses without a T/C. Other doses and runs of a compound stand elsewhere. T/C gives the treated animals as a percentage of the vehicle group. Some doses have a count of surviving animals in place of a T/C: the source files T/C as zero there, which appears to mark a toxic dose or a test without result, not a measured value. Some survivor counts are full or nearly so, which does not show that the dose was tolerated: survival well below the control is almost never listed, so the zero probably covers shortened survival too. Survivors were counted at the toxicity check, usually on the fifth day, unless a day is given; later deaths do not show. Schedule codes are those of the source, read here as Q, the interval in days (D) or hours (H), X, the number of doses. Some entries were tested several times; their values stand side by side, smallest first. Where survival is the endpoint, the PubChem record calls one and a half times the control and up active, and a quarter to a half above the control has no call in these data; cut-offs in other NCI protocols can differ. Some T/C values are followed by the survivors on the day toxicity was checked, most often the fifth; where none is given, no animal had died by that day. Additions like (4×) stand for listed records that agree.

On to `CN1N=C(N)c2cn(C3OC(COP(=O)(O)O)C(O)C3O)c3ncnc1c23` (stereo unspecified), for which the T/C is 125 % of control (dose: 6.25 mg/kg/injection, schedule: Q01DX009 (ip), vehicle: water); 125 [5 of 6 alive] and 129 % of control (dose: 12.5 mg/kg/injection, schedule: Q01DX009 (ip), vehicle: water); 136 and 139 % of control (dose: 25.0 mg/kg/injection, schedule: Q01DX009 (ip), vehicle: water); 128 % of control (dose: 38.0 mg/kg/injection, schedule: Q01DX005 (ip), vehicle: water); 125 % of control (dose: 40.0 mg/kg/injection, schedule: Q01DX005 (ip), vehicle: saline); 127 and 149 % of control [5 of 6 alive] (dose: 50.0 mg/kg/injection, schedule: Q01DX009 (ip), vehicle: water). Further, the T/C was 117, 119, 125 % of control (2×) (dose: 54.0 mg/kg/injection, schedule: Q01DX005 (ip), vehicle: water, evaluated on day 45); 119, 123 (2×), 126, 129 % of control (dose: 54.0 mg/kg/injection, schedule: Q01DX005 (ip), vehicle: water, evaluated on day 60); 134 % of control (dose: 54.0 mg/kg/injection, schedule: Q01DX009 (ip), vehicle: water); 133 % of control (dose: 80.0 mg/kg/injection, schedule: Q01DX005 (ip), vehicle: saline); 119, 124, 126, 163 % of control [9 of 10 alive] (dose: 80.0 mg/kg/injection, schedule: Q01DX005 (ip), vehicle: water, evaluated on day 45); 122 [9 of 10 alive], 126, 127, 133, 135 % of control (dose: 80.0 mg/kg/injection, schedule: Q01DX005 (ip), vehicle: water, evaluated on day 60). Further, the T/C is 134 % of control (dose: 80.0 mg/kg/injection, schedule: Q01DX009 (ip), vehicle: water); 127 and 131 % of control (dose: 100.0 mg/kg/injection, schedule: Q01DX009 (ip), vehicle: water); 119 [9 of 10 alive], 121 [9 of 10 alive], 125 % of control [9 of 10 alive] (dose: 120.0 mg/kg/injection, schedule: Q01DX005 (ip), vehicle: water, evaluated on day 45); 116 [9 of 10 alive], 119 [7 of 10 alive], 120, 122, 125 % of control [9 of 10 alive] (dose: 120.0 mg/kg/injection, schedule: Q01DX005 (ip), vehicle: water, evaluated on day 60); 136 % of control [9 of 10 alive] (dose: 120.0 mg/kg/injection, schedule: Q01DX009 (ip), vehicle: water); 139 % of control [4 of 6 alive] under setting [1]. The survivor count is recorded as 2 of 10 (dose: 180.0 mg/kg/injection, schedule: Q01DX005 (ip), vehicle: water); 1 of 6 under setting [1]; 0 of 6 (dose: 400.0 mg/kg/injection, schedule: Q01DX009 (ip), vehicle: water).
Turning to `COc1cc(NCCN(CC(C)C)C2CCCC2)c2ncccc2c1`, the survivor count under setting [2] was 0 of 5.
In the case of `CCC(=O)OCC1OC(OC2c3cc4c(cc3C(c3cc(OC)c(OC)c(OC)c3)C3C(=O)OCC23)OCO4)C(OC(=O)CC)C(OC(=O)CC)C1OC(=O)CC` (stereo unspecified), the survivor count reads like this: (dose: 100.0 mg/kg/injection, schedule: Q01DX005 (ip), vehicle: saline with Tween-80) 3 of 5; (dose: 200.0 mg/kg/injection, schedule: Q01DX005 (ip), vehicle: saline with Tween-80) 0 of 5.
On to `CC(=O)[O][Hg][CH]1CCC2OC1CC[CH]2[Hg][O]C(C)=O` (stereo unspecified), for which the survivor count is on record as 3 of 6 (dose: 25.0 mg/kg/injection, schedule: Q01DX009 (ip), vehicle: saline with Tween-80); 0 of 6 (dose: 50.0 mg/kg/injection, schedule: Q01DX009 (ip), vehicle: saline with Tween-80); 0 of 6 (dose: 100.0 mg/kg/injection, schedule: Q01DX009 (ip), vehicle: saline with Tween-80); 0 of 6 (dose: 200.0 mg/kg/injection, schedule: Q01DX009 (ip), vehicle: saline with Tween-80).
With `c1ccc(-c2c[n+]3ccccc3n2-c2ccccc2)cc1`, the survivor count is listed as 0 of 6 under setting [3]; 0 of 6 (dose: 25.0 mg/kg/injection, schedule: Q01DX009 (ip), vehicle: saline); 0 of 6 (dose: 50.0 mg/kg/injection, schedule: Q01DX009 (ip), vehicle: saline); 0 of 6 under setting [4]; 0 of 6 under setting [5].
Consider `Cc1ccnc(NC2=CC(=O)C(=O)c3ccccc32)c1`, for which the T/C by setting is: (dose: 75.0 mg/kg/injection, schedule: Q01DX009 (ip), vehicle: saline sonified) 127 % of control; (dose: 150.0 mg/kg/injection, schedule: Q01DX009 (ip), vehicle: saline sonified) 136 % of control.
For `C[Si](C)(C)CNCCNC[Si](C)(C)C`, the survivor count under setting [6] is recorded as 0 of 6.
On to `Cc1cc(C)n(C2=NCCN2)n1`, for which the survivor count (dose: 240.0 mg/kg/injection, schedule: Q01DX005 (ip), vehicle: saline) was 0 of 6.
For the molecule `C[S+](C)CCCNC(=O)c1csc(-c2csc(-c3cscn3)n2)n1`, the survivor count (dose: 25.0 mg/kg/injection, schedule: Q01DX005 (ip), vehicle: saline) is listed as 0 of 6.
For `CC1(C)[C@H]2Cc3c(ccc4c3C(=O)OC4=O)[C@@H]1C2`, the survivor count (dose: 200.0 mg/kg/injection, schedule: Q01DX005 (ip), vehicle: Klucel + Tween-80) is listed as 1 of 6.
Consider `Cc1ccc2[nH]c(=O)oc2c1`, for which the survivor count (dose: 100.0 mg/kg/injection, schedule: Q04DX002 (ip), vehicle: saline with Tween-80) was 1 of 6 and 2 of 6; the survivor count (dose: 200.0 mg/kg/injection, schedule: Q04DX002 (ip), vehicle: saline with Tween-80) is 0 of 6; the survivor count (dose: 400.0 mg/kg/injection, schedule: Q04DX002 (ip), vehicle: saline with Tween-80) was 0 of 6.
As for `CC1=CC(=Nc2cc(Cl)c(O)c(Cl)c2)C=CC1=O`, the survivor count runs as follows: (dose: 50.0 mg/kg/injection, schedule: Q01DX005 (ip), vehicle: saline) 0 of 5; (dose: 100.0 mg/kg/injection, schedule: Q01DX005 (ip), vehicle: saline) 0 of 5; under setting [2], 0 of 5.
In the case of `Cc1ccc(S(=O)(=O)/N=[Se](\C)c2ccccc2)cc1` (stereo unspecified), the survivor count was 5 of 6 (dose: 6.25 mg/kg/injection, schedule: Q01DX009 (ip), vehicle: saline); 6 of 6 under setting [3]; 1 of 6 under setting [4]; 0 of 6 under setting [5].
Turning to `O=C(O)c1cc2oc(-c3ccccc3)cc2[nH]1`, the survivor count under setting [6] is 0 of 6.
On to `COc1ccc2c3c1O[C@H](c1ccc(O)cc1)[C@H]3[N+](C)(C)CC2`, for which the survivor count (dose: 100.0 mg/kg/injection, schedule: Q01DX005 (ip), vehicle: Klucel (hydroxypropylcellulose) (HPC)) is listed as 0 of 6.
